Experimental data taken from patent US8409814B2, “Sensor proteins and assay methods” (Life Technologies Corporation, priority 2006, dated 2013).

Tested on: recombinant bovine alkaline phosphatase
Assay: Cleavage by alkaline phosphatase detected with coumarin-PBP fluorescence
Assay type: biochemical
Conditions: for change in fluorescence intensity after alkaline phosphatase (cleavage): 8 units per 20 uL well alkaline phosphatase, wells with >1 uM compound; for change in fluorescence intensity after alkaline phosphatase (cleavage) / cleavage by alkaline phosphatase within 5 minutes: 5 minutes; for cleavage by alkaline phosphatase within 5 minutes: 10 milli-units/mL alkaline phosphatase, 100 μM compound; for alkaline phosphatase activity on compound after one hour: up to about 1 unit/mL alkaline phosphatase

Structure (SMILES) | change in fluorescence intensity after alkaline phosphatase (cleavage) | cleavage by alkaline phosphatase within 5 minutes | alkaline phosphatase activity on compound after one hour
Nc1ncnc2c1ncn2[C@@H]1O[C@@H]2COP(=O)(O)O[C@H]2[C@H]1O [cAMP, cyclic AMP] | some increase in fluorescent intensity | did not cleave | no detectible activity
Nc1nc2c(ncn2[C@@H]2O[C@@H]3COP(=O)(O)O[C@H]3[C@H]2O)c(=O)[nH]1 [cGMP, cyclic GMP] | some increase in fluorescent intensity | did not cleave | no detectible activity
Nc1ncnc2c1ncn2[C@@H]1O[C@H](COP(=O)(O)OP(=O)(O)OP(=O)(O)O)[C@@H](O)[C@H]1O [ATP] |  | cleaved | 
O=[N+]([O-])c1ccc(OP(=O)(O)O)cc1 [PNP, p-nitrophenyl phosphate] | decrease in intensity at higher phosphatase concentrations |  | 
